No signal at the amounts used counts as a negative. At least one verdict rests on a figure or table, not on a statement of the authors. Tags and fusion partners may be left off the protein sequences shown.

The series has as its system T1, Aux1LS20-His6 (p56) (Bacillus subtilis plasmid pLS20cat).
T1 sequence (looked up): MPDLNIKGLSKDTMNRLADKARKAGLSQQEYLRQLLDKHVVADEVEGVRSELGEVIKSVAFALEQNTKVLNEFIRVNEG
The experiment in a line: EMSA. Conditions: 90 nM protein; EMSA: 20 mM Tris-HCl pH 8, 1 mM EDTA, 5 mM MgCl2, 0.5 mM DTT, 100 mM KCl, 10% glycerol, 0.05 mg/ml BSA; 20 min 30°C then 10 min on ice; 2% agarose, 0.5x TBE, 4°C; recombinant protein; residues 1-79; protein details: C-terminal His6; probe letters rebuilt from the primers and the genome.

With “TGAGAAAGTCCTGCCTTCCTCGCTTTATCCGCAAGCCTATTCATTGTATCTTTTGAAAGACCTTTGATGTTGAGATCCGGCATTTGTTAACGCTCCTTTTCATCGATTTCTGCACATTACTTTGCAACGATCTGTTCAAATAAGTGTTTCTTTTTCCAAGGCTTTTTGCGGCAGCAAAAAGCCGGCCCCCGATTCCGAAGG (double strand) [F33]”, the binding result was “no binding”.
For “CGGCATTTGTTAACGCTCCTTTTCATCGATTTCTGCACATTACTTTGCAACGATCTGTTCAAATAAGTGTTTCTTTTTCCAAGGCTTTTTGCGGCAGCAAAAAGCCGGCCCCCGATTCCGAAGGAAGGAGGGGGTGGAAAAGGAAAGAGCATAAGGGGAAACTGGCACCATTTGCATGGTGAAACCGCAGTGCGGTTTGT (double strand) [F30]” the value was “no binding”; for “GCTCTTTCCTTTTCCACCCCCTCCTTCCTTCGGAATCGGGGGCCGGCTTTTTGCTGCCGCAAAAAGCCTTGGAAAAAGAAACACTTATTTGAACAGATCGTTGCAAAGTAATGTGCAGAAATCGATGAAAAGGAGCGTTAACAAATGCCGGATCTCAACATCAAAGGTCTTTCAAAAGATACAATGAATAGGCTTGCGGA (double strand) [F32]”, “no binding”.
For the sequence “GCAAATGGTGCCAGTTTCCCCTTATGCTCTTTCCTTTTCCACCCCCTCCTTCCTTCGGAATCGGGGGCCGGCTTTTTGCTGCCGCAAAAAGCCTTGGAAAAAGAAACACTTATTTGAACAGATCGTTGCAAAGTAATGTGCAGAAATCGATGAAAAGGAGCGTTAACAAATGCCGGATCTCAACATCAAAGGTCTTTCAA (double strand) [F31]”, the binding result is “no binding”.
For “ACGAGCAAAGAAATGCTAGGTGAACTTGAAAAACGGAATGAATTATTGAAGAAAAGAAAGAGCAATCTCGTCATCGAAGACTAAATTTCTGTATGGAAAACAGTTATTTTTCGTGTGCATAAAATAAAGATTTATGTGCATTTAGTTCTAAATCACCTAAATAATGGTTGAACATAAATGTTTTTTTTATGTGCATTCAGC (double strand) [F21]” the value was “no binding”.

(Values after article PMC5675868.)
